Source: PubChem BioAssay AID651784 (National Center for Advancing Translational Sciences (NCATS), 2012)
Inconclusive results, whose numbers are uncertain, are shown with a selection of clear calls. Potencies of inconclusive entries are doubtful fits and often do not repeat. The source made the active and inactive calls. Calls follow the shape of the dose curve; as a rule, active = well fitted inhibition curve with a large enough effect; inconclusive = small, poorly fitted or top-dose-only effect; inactive = no such curve, though single readings can be large or run the other way.

Test: Acumen qHTS Assay for Inhibitors of the mTORC1 Signaling Pathway in MEF (Tsc2-/-, p53-/-) Cells: Hit Validation;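 also: phospho-rpS6 Ser235/236 immunofluorescence normalized to propidium iodide cell count; nearly all actives have a fitted effect of over 65% in size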
Settings: Acumen imaging
Potency is read from the fitted curve at half-maximal effect.

Row | SMILES | Potency
1 | Cc1[nH]c2ccccc2c1C1(O)C(=O)N(Cc2ccc(Cl)cc2)c2ccccc21 (stereo unspecified) | inconclusive: 4.65 µM [inhibitor, partial curve]
2 | CCCCN(C)CCCNC(=O)C1CCN(c2nc3ccc(CC)cc3s2)CC1 | inconclusive: 26.1 µM [inhibitor, single point]
3 | CCOC(=O)c1ccc(-c2ccc(/C=C(\C#N)c3nc4ccc(C)cc4[nH]3)o2)cc1 | active: 4.14 µM
4 | Cc1cc(NC(=O)c2ccc(NC(=O)CCS(=O)(=O)c3cccs3)cc2)ccc1Br | inconclusive: 16.5 µM [inhibitor, partial curve, poor fit]
5 | CN(C)S(=O)(=O)c1ccc2c(c1)/C(=C/c1cc3c([nH]1)CCCC3)C(=O)N2 | inconclusive: 10.3 µM [inhibitor, single point]
6 | COc1ccc(CNC(=O)c2cccc(N3CCCS3(=O)=O)c2)cc1OC | active: 5.21 µM
7 | CCCn1c2ccc(C)cc2c2nnc(SCCN3CCCCC3)nc21 | inconclusive: 14.7 µM [inhibitor, single point]
8 | CCN(CCCNC(=O)c1cc2c(=O)[nH]c3ccccc3c2s1)c1ccccc1 | inconclusive: 16.5 µM [inhibitor, single point]
9 | CN1CCN(C2(CNC(=O)c3ccc(C(C)(C)C)cc3)CCCCC2)CC1 | inconclusive: 13.1 µM [inhibitor, single point]
10 | Cc1cccc(Cn2cc(C(=O)Nc3ccc(F)c(C(F)(F)F)c3)ccc2=O)c1 | inconclusive: 26.1 µM [inhibitor, single point]
11 | CCOc1ccc(C2C(C(=O)Nc3ccc(Cl)cc3)=C(C)Nc3nc(C(F)(F)F)nn32)cc1 (stereo unspecified) | inconclusive: 23.3 µM [inhibitor, single point]
12 | CC(C)c1ccc(C2Sc3ccccc3NC3=C2C(=O)c2ccccc23)cc1 (stereo unspecified) | inconclusive: 14.7 µM [inhibitor, single point]
13 | O=C(/C=C/c1ccco1)Nc1ccc(Cl)c(-c2nc3cc(Cl)ccc3o2)c1 | inconclusive: 14.7 µM [inhibitor, single point]
14 | O=C(c1ccc(CS(=O)c2ccccc2Cl)o1)N1CCN(c2cccc(C(F)(F)F)c2)CC1 (stereo unspecified) | inconclusive: 0.521 µM [inhibitor, full curve]
15 | CCOC(=O)c1cnc2ccc(OCC)cc2c1NCCc1ccc(OC)c(OC)c1 | inconclusive: 14.7 µM [inhibitor, single point]
16 | CCOc1cc(C(=O)Nc2ccc(-c3cn4cccnc4n3)cc2)cc(OCC)c1OCC | inconclusive: 14.7 µM [inhibitor, single point]
17 | CCSc1ccccc1C(=O)Nc1ccc(-c2nc3ccccc3s2)c(O)c1 | active: 13.1 µM
18 | CC(C)CCNC(=O)C(=O)Nc1c2c(nn1-c1ccc(Cl)cc1)CSC2 | active: 5.85 µM
19 | CCN1C(=O)c2ccccc2Sc2ccc(NC(=O)Cc3ccc(OC)cc3)cc21 | active: 4.14 µM
20 | CCOc1cc(C(Nc2cc(C)ccn2)c2ccc3cccnc3c2O)ccc1OC (stereo unspecified) | inconclusive: 26.1 µM [inhibitor, single point]
21 | O=C(CCOc1ccccc1)N(Cc1cccnc1)c1nc2c(F)cc(F)cc2s1 | inconclusive: 26.1 µM [inhibitor, single point]
22 | COc1ccccc1-c1cc(C(=O)Nc2cc(OC)c(OC)c(OC)c2)no1 | inconclusive: 0.736 µM [inhibitor, full curve, poor fit]
23 | COc1ccc(NC(=O)c2nc(S(=O)(=O)Cc3ccc(C)cc3)ncc2Cl)cc1 | inconclusive: 16.5 µM [inhibitor, partial curve, poor fit]
24 | COc1ccc(OC)c(Nc2c3c(nc4ccccc24)CCC3)c1 | active: 3.29 µM
25 | CC1=Nc2cc(C(=O)NC3CCCCC3)ccc2Sc2ccc(Cl)cc21 | inconclusive: 0.736 µM [inhibitor, full curve, poor fit]
26 | COc1ccc(-c2noc(CSc3nc(N)cc(=O)[nH]3)n2)cc1 | inconclusive: 8.26 µM [inhibitor, partial curve, poor fit]

Two of the compounds above, in markdown.

| Row | SMILES | Potency |
| --- | --- | --- |
| 1 | Cc1[nH]c2ccccc2c1C1(O)C(=O)N(Cc2ccc(Cl)cc2)c2ccccc21 (stereo unspecified) | inconclusive: 4.65 µM [inhibitor, partial curve] |
| 6 | COc1ccc(CNC(=O)c2cccc(N3CCCS3(=O)=O)c2)cc1OC | active: 5.21 µM |
